Experimental data published in publication PMC4868758.
No constants are given. Whether binding was seen depends on the method and setting. Binding seen in cells or lysates may run through a third protein. For some assays here: A result given as binding can be weak or reduced; the word gives no strength.

Experiments:
[1] = biological target: T1, tetraspanin CD151 (human (endogenous in HCCLM3)) (UniProt P48509); test: co-IP; HCCLM3 lysate; CD151 immunoprecipitated with an anti-CD151 antibody purchased from Abcam (a different epitope of CD151); integrin α6 detected by Western blotting
T1 sequence: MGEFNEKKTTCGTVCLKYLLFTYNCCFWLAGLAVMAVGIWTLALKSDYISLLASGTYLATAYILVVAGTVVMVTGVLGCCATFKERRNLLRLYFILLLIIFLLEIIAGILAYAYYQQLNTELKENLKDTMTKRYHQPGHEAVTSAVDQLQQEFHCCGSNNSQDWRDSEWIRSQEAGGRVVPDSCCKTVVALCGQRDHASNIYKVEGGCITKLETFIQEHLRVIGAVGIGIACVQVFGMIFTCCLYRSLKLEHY

[2] = biological target: T1, tetraspanin CD151 (human (endogenous in HCCLM3)); test: condition: only CD151 immunoprecipitated with CD151 mAb 9B, an antibody against the CD151/integrin α6β1 binding site; co-IP; HCCLM3 lysate (250 mg); CD151 immunoprecipitated with CD151 mAb 9B (five milligrams), raised against the CD151/integrin α6β1 binding site; integrin α6 probed by Western blotting

binding [1]: binds | binding [2]: no binding
Substance: integrin α6 (human (endogenous in HCCLM3))
